Results are given in words; binding and its absence hold for the method and conditions named. Binding seen in cells or lysates may run through a third protein. Some entries that bind do so weakly or less than the wild type.
Biological target: FLAG::CG33172 (Drosophila melanogaster) (UniProt Q86B53)
Test: co-IP

By UniProt entry, the sequences of proteins in these tests, tags left out.
UniProt Q86B53: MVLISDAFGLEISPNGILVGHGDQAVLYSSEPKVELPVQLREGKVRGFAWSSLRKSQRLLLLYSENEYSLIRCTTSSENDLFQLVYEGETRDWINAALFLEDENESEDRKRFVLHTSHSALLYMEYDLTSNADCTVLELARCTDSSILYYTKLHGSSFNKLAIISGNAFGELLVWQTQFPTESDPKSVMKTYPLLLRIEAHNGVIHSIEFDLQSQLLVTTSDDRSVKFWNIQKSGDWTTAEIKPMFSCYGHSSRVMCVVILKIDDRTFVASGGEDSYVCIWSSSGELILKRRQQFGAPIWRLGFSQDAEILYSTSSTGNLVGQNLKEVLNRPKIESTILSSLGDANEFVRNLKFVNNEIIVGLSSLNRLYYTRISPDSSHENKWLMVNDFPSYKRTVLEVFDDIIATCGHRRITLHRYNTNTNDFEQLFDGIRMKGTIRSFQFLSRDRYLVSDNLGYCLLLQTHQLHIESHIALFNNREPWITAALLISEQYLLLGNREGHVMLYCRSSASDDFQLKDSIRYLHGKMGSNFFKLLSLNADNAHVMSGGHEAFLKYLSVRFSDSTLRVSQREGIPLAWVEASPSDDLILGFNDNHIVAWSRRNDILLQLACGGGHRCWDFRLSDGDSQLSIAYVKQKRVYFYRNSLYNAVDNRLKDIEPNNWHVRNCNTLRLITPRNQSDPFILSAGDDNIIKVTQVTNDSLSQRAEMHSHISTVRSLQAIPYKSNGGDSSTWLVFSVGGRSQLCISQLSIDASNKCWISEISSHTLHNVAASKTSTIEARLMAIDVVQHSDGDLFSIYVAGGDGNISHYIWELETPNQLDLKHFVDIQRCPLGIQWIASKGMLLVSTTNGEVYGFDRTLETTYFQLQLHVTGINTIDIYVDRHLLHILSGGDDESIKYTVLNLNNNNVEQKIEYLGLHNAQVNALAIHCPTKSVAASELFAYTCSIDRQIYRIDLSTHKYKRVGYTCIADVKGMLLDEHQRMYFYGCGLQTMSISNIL
UniProt Q9VDD9: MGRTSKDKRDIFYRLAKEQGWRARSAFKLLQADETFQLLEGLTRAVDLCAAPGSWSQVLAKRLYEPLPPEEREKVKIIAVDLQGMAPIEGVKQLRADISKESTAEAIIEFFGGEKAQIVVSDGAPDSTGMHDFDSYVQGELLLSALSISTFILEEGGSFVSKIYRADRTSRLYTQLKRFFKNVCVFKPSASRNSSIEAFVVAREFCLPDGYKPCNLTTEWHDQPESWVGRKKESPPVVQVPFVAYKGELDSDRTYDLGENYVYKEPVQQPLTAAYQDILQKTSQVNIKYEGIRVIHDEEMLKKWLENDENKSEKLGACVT

GST::CG7009 (from UniProt Q9VDD9 1-320) (enzyme)
binding: binds

From doi:10.1101/699934
